Experimental data taken from PMC9344466.
No constants are given. Whether binding was seen depends on the method and setting. In cells and extracts the contact can be indirect. Some binding calls cover weakened binding; strength is not graded here. Where a sequence is shown, tags or fusion partners need not be part of it.

Amino acid sequences for entries named in this document (tags omitted).
UniProt Q13263: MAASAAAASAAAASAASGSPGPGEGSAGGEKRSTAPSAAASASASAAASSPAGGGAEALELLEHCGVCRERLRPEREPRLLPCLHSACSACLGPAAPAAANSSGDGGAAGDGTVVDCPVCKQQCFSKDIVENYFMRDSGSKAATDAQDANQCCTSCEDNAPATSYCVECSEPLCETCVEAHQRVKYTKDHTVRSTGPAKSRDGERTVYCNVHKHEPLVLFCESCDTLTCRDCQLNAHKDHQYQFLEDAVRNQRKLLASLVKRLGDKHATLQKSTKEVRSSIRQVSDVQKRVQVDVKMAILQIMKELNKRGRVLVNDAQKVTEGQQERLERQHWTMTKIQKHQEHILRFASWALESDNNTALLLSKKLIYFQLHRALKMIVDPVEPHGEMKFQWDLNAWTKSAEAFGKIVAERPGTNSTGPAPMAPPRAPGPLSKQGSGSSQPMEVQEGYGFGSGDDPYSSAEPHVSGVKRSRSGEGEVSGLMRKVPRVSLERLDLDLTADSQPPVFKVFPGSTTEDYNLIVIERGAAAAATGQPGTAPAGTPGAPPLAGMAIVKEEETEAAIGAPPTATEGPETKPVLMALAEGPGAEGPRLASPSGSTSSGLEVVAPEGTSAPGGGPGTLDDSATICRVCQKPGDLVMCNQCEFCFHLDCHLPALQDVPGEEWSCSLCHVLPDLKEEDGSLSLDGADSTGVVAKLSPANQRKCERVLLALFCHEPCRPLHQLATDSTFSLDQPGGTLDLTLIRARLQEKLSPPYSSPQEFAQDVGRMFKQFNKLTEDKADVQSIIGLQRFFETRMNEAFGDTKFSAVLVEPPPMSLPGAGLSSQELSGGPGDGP

Assays:
[1] = molecular target: T1, GST-tagged MAGE-C2 MHD domain (residues 140-350) (human) (UniProt Q9UBF1); test: pull-down; reverse competition: MDM2 tested for displacing TRIM28 from MAGE-C2 MHD (Supplementary Figure S3)
T1 sequence: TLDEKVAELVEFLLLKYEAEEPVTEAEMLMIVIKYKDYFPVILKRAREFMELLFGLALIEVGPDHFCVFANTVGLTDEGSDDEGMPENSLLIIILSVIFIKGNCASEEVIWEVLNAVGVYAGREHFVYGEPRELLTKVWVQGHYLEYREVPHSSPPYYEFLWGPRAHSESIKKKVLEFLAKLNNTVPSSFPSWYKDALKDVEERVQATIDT

[2] = molecular target: T1, GST-tagged MAGE-C2 MHD domain (residues 140-350) (human); test: pull-down; competition: MDM2 first bound to GST-MAGE-C2 MHD on GST beads, then TRIM28 added in a gradient; beads immunoblotted with MDM2 antibodies (Figure 4A)

binding [1]: binds | binding [2]: binds
Substance: TRIM28 (from UniProt Q13263 1-835) (enzyme)
